According to publication PMC7650656:
These are yes or no findings as the source states them, for the method shown. Binding seen in cells or lysates may run through a third protein. A yes stands for co-enrichment or nearness to the bait. Other partners may have been found.

B1: Aquaporin AtPIP2;1 (endogenous) (protein, UniProt P43286 1-287)
chain: MAKDVEAVPGEGFQTRDYQDPPPAPFIDGAELKKWSFYRAVIAEFVATLLFLYITVLTVIGYKIQSDTDAGGVDCGGVGILGIAWAFGGMIFILVYCTAGISGGHINPAVTFGLFLARKVSLPRALLYIIAQCLGAICGVGFVKAFQSSYYTRYGGGANSLADGYSTGTGLAAEIIGTFVLVYTVFSATDPKRSARDSHVPVLAPLPIGFAVFMVHLATIPITGTGINPARSFGAAVIYNKSKPWDDHWIFWVGPFIGAAIAAFYHQFVLRASGSKSLGSFRSAANV
B2: GRF10 (GRF 14-3-3 protein) (protein, UniProt P48347 1-254)
chain: MENEREKQVYLAKLSEQTERYDEMVEAMKKVAQLDVELTVEERNLVSVGYKNVIGARRASWRILSSIEQKEESKGNDENVKRLKNYRKRVEDELAKVCNDILSVIDKHLIPSSNAVESTVFFYKMKGDYYRYLAEFSSGAERKEAADQSLEAYKAAVAAAENGLAPTHPVRLGLALNFSVFYYEILNSPESACQLAKQAFDDAIAELDSLNEESYKDSTLIMQLLRDNLTLWTSDLNEEGDERTKGADEPQDEN

Tests used:
[1] = biological target: OsRLCK311 C-terminus (ΔN) fused to 3xFlag (rice (Oryza sativa)); assay: affinity purification with mass spectrometry; anti-Flag magnetic beads on lysates of 3-week-old transgenic Arabidopsis seedlings overexpressing OsRLCK311-ΔN or -FL with 3xFlag; wild-type extracts as negative control; LC-MS/MS
[2] = biological target: OsRLCK311 full-length protein fused to 3xFlag (rice (Oryza sativa)); assay: as above

| Binder | binding [1] | binding [2] |
| --- | --- | --- |
| B1 | binds | binds |
| B2 | binds | binds |
